# These are yes or no findings as the source states them, for the method shown. Some binding calls cover weakened binding; strength is not graded here.
# The chains behind the UniProt entries cited, without tags or fusion partners. Residues count along the entry.
# UniProt O15123, residues 19-496: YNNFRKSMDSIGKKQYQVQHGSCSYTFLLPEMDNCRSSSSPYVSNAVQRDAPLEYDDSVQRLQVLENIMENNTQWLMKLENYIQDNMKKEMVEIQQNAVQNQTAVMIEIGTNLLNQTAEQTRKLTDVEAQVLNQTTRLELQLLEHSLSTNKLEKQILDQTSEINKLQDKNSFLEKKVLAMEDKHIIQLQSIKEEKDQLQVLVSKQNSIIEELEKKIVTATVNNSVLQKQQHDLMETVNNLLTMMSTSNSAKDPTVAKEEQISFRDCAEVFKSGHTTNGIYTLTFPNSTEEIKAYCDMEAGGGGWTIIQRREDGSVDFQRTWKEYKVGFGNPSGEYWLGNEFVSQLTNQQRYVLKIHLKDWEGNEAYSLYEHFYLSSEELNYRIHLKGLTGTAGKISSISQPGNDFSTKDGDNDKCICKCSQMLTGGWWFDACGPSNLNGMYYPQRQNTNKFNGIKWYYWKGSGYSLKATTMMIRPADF
# T1: Recombinant human Angiopoietin-like-4 (R&D Systems Cat No 3485-AN) (human) (UniProt Q9BY76)
# T1 sequence (looked up): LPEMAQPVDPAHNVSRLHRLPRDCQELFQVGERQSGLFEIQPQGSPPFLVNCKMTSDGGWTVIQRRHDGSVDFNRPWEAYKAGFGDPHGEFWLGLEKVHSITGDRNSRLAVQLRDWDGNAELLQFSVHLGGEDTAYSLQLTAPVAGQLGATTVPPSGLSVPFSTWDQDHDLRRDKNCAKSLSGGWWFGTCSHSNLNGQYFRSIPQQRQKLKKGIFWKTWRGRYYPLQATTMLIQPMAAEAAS
# Assays:
# [1] = target: T1, Recombinant human Angiopoietin-like-4 (R&D Systems Cat No 3485-AN) (human); experiment: phage ELISA on coated Angptl4: 10 ul monoclonal phage supernatant in 100 ul, anti-M13-HRP, OD 450 nm
# [2] = target: T1, Recombinant human Angiopoietin-like-4 (R&D Systems Cat No 3485-AN) (human); experiment: phage ELISA on immobilized Angiopoietin-like-4, anti-M13-HRP
# [3] = target: Recombinant human Angiopoietin-2 (R&D Systems Cat No 623-AN/CF) (human) (UniProt O15123); experiment: phage ELISA, 0.2 ug/ml Ang2 coated, anti-M13-HRP
# [4] = target: Recombinant human Angiopoietin-2 (R&D Systems Cat No 623-AN/CF) (human) (UniProt O15123); experiment: phage ELISA: 10 ul monoclonal phage supernatant in 100 ul on 0.2 ug/ml coated Ang2, anti-M13-HRP, OD 450 nm
# [5] = target: biotinylated rh Ang2 (R&D Systems Cat No BT623, Lot No BNR174091) (human) (UniProt O15123); experiment: competition ELISA: 0.05 ug/ml biotinylated Ang2 pre-incubated with 10 ul periplasmic extract, then on coated Tie2/Fc (4 ug/ml); bound Ang2 detected with extravidin-HRP; blocked partner: Tie2/Fc
binding [1],binding [2],binding [3],binding [4],binding [5],Binder
,,binds,binds,binds,"166-D7 (VHH, Nanobody) VHH: EVQLVESGGGLVQAGGSLRLSCAASGFTFSDTTIGWFRQAPGKEREGISCISTGDGSTYYAESVKGRFTISSDNAKNTVYLQMNSLNPEDTAVYYCALDQAPLWSTWSAPYEYDYWGQGTQVTVSS"
binds,binds,,,,171-G4 (VHH) VHH: EVQLVESGGGLVQAGGSLRLSCVASGDTFNWYAMGWFRQQAPGKEREFVSAISGGGSNIVYVDSVKGRFTVSRDRIKNTVYLQMNSLKPEDSGVYYCAVDKRWGSPATSRSTHDYDFWGQGTQVTVSS
binds,binds,,,,171-G2 (VHH) VHH: EVQLVESGGGLVQAGGSLRLSCTASGLTFSMYAMAWIRLAPGKEREVIAAIDWSGGSTFYGDSVKGRFTISRDNAKNTVYLEMNSLKPEDTAVYYCAANRRIYSSGSSLSDNSLYNFWGQGTQVTVSS
binds,binds,,,,171-H2 (VHH) VHH: EVQLVESGGGLVQAGGSLRLSCAASGRPFSMYAMGWFRQAPGKEREFVTVITWSGGSTYYADSVKGRFTISKDIAKNTVYLQMNSLKPDDMAVYYCAAARRYGNLYNTNNYDYWGQGTQVTVSS
binds,binds,,,,171-F3 (VHH) VHH: EVQLVESGGGLVQTGGSLRLSCAASGRSFNLYYMGWFRQAPGREREFVAGISGSGGSTFYGDSVKGRFTISRDNLKNTMYLQMNSLKPEDTAVYYCQSSRRIITNPREYGYWGQGTQVTVSS

# The remaining lines, values behind:
Binder,binding [1],binding [2],binding [3],binding [4],binding [5]
171-D2 (VHH) VHH: EVQLVESGGGLVQAGGSLRLSCAASVLTFGTYTVGWFRQAPGKEREFVSIITGSGTYNDYADSVKGRFTVSRDNAKNTVYLQMNSLKSEDTAVYYCAARHWGMFSRSENDYNYWGQGTQVTVSS,binds,binds,,,
171-E2 (VHH) VHH: EVQLVESGGGLVQAGASLRLSCVDSGDTFSWYAMGWFRQQAPGKEREFVSSISGGGSNTVYADSVKGRFTVSRDRAKNTVYLQMNSLKPEDSGVYYCAADKRWGSPATSRSTHDYDFWGQGTQVTVSS,binds,binds,,,
170-B1 (VHH) VHH: EVQLVESGGGLVQAGGSLRLSCAASESIFSLYVTGWYRQAPGKQRELVASITSGGSLTYADSVKGRFTISRDNAKNTVHLQMHSLKPEDTAVYFCNGRSIGVDDMPYVYWGQGTQVTVSS,binds,binds,,,
170-G3 (VHH) VHH: EVQLVESGGGLVQAGGSLRLSCAASETIFASAMGWYRQPPGKQRELVARITRGGSTNYAESVKGRFAISRDNADSTLYLRMNNLKPEDTAVYYCNADTIGHSSSYITYWGQGTQVTVSS,binds,binds,,,
170-F2 (VHH) VHH: EVQLVESGGGLVQAGGSLRLSCAASGIFIIDTMGWYRQAPGKQRELVASITPTGNTNYVDSVKGRFAISRDNNKNTMHLQMNSLKPEDTAVYYCNAVYPRYYGDDDRPPVDSWGQGTRVTVSS,binds,binds,,,
170-C2 (VHH) VHH: EVQLVESGGGLVQPGGSLRLSCAASGFTFSLNAMTWVRQAPGKGLEWVSTISSGGWTTSYADSVKGRFTISRDNAKNTLYLQMNSLKPEDMAVYYCAKGSEFNGYEVRGQGTQVTVSS,binds,binds,,,
170-H1 (VHH) VHH: EVQLVESGGGLAQAGGSLRLSCAASGSISSINVMGWYRQAPGKQRDLVAVITRALNTNYATSVKGRFTISRDDFKDTVYLQMNSLEPEDTAVYYCNAGGYYTNLRTGGNYWGQGTQVTVSS,binds,binds,,,
171-E4 (VHH) VHH: EVQLVESGGGLVQPGGSLRLSCAASGRTFSTFNTYSMGWFRQAPGKEREFVAAISRSGNVTPYADSVKGRFAISRDNAKNTLTLQMNSLKPEDTAVYYCAASKIGIASTIRYYDYWGQGTQVTVSS,binds,binds,,,
171-C4 (VHH) VHH: EVQLVESGGGLVQPGGSLRLSCAASGRTFSTFNTYSMGWFRQAPGKEREFVAAISRGGNVTPYADSVKGRFAISRDNAKNTVALQMNSLKPEDTAVYYCAASKIGIASTIRYYDYWGQGTQVTVSS,binds,binds,,,
